Experimental data reported in PMC11324303.

Sequences of proteins named here, by UniProt entry; tags and fusion partners are left off. A change or cut given only in a name is not applied to a line headed by its entry. Residues count along the entry.
UniProt Q8IWA5: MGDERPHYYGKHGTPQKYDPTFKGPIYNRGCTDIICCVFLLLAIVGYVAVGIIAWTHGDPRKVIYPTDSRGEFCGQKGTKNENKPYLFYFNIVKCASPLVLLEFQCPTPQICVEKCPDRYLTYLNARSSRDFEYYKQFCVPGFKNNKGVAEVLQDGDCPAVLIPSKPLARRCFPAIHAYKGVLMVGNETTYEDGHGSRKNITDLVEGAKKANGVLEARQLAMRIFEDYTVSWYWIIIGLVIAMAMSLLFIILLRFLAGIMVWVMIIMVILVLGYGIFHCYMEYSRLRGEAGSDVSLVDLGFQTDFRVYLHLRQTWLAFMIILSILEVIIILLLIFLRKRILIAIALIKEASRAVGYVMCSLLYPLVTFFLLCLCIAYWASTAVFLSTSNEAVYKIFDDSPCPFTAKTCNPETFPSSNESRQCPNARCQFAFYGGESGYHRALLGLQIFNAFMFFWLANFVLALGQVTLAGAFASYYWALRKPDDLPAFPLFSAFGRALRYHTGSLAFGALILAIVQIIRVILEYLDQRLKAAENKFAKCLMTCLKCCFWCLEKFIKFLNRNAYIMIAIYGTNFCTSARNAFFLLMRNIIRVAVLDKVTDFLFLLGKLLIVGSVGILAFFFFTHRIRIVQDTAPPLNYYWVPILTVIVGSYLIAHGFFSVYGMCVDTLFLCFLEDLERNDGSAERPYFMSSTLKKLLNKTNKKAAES
UniProt O14786, residues 22-923: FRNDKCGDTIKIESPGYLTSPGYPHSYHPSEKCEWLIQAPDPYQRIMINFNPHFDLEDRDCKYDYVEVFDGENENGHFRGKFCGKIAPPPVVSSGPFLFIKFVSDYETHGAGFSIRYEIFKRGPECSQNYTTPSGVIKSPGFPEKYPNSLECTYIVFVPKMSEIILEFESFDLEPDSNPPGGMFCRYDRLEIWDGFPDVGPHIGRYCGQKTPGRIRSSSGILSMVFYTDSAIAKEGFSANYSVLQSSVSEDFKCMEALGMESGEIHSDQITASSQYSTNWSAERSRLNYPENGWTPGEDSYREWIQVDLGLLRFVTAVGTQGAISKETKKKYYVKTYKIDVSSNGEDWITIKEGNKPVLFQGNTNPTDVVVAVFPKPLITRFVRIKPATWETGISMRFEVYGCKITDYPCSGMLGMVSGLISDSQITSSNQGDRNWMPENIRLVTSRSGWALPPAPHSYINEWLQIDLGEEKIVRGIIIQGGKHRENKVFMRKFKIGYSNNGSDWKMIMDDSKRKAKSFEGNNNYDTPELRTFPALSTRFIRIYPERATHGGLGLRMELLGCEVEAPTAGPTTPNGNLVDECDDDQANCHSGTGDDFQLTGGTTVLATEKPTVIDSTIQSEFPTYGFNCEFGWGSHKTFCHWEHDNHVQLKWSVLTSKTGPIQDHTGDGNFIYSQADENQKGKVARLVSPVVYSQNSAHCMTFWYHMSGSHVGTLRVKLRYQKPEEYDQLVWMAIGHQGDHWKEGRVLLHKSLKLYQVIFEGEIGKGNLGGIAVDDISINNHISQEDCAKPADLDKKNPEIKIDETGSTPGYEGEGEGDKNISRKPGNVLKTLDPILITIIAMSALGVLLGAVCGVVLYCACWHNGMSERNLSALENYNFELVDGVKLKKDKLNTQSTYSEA

Assays:
[1] = biological target: HA-tagged WT SLC44A2 (UniProt Q8IWA5); experiment: co-IP; HEK293 cells cotransfected with HA-SLC44A2 and His-NRP1 constructs; IP anti-HA, blot anti-His (Figure 6A); IP anti-His, blot anti-HA (Figure 6B)
[2] = biological target: GST-tagged SLC44A2 (UniProt Q8IWA5); experiment: pull-down; GST pull-down with GST-tagged SLC44A2 and lysates from HASMCs and MASMCs; only the target purified

binding [1]	binding [2]	Substance
binds	–	His-tagged WT-NRP1 (from UniProt O14786 22-923) (receptor)
–	binds	NRP1 (mouse) (from UniProt P97333 22-923) (receptor)
–	binds	neuropilin-1 (NRP1) (from UniProt O14786 22-923) (receptor)

Results are given in words; binding and its absence hold for the method and conditions named. In cells and extracts the contact can be indirect. Binding calls can cover weak binding; strength is not graded here.
